In patent US20040014151A1 (published 2004) one finds binding data, which are given here for 1 substance.

The chains behind the UniProt entries cited, without tags or fusion partners. Residues count along the entry.
UniProt P07120, residues 2-173: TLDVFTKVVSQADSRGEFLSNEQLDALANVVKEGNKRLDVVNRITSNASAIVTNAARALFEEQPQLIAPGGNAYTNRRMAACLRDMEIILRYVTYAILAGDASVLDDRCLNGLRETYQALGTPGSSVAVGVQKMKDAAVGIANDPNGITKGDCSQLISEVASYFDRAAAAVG
UniProt P07121: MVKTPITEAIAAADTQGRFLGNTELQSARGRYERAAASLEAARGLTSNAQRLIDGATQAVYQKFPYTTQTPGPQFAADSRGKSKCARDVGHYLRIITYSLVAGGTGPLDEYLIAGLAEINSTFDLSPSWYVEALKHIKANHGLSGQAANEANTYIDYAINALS

These are yes or no findings as the source states them, for the method shown. In cells and extracts the contact can be indirect. A yes stands for co-enrichment or nearness to the bait. Other partners may have been found.

The test concerns the target native C-phycocyanin β subunit (holo-β) (Anabaena sp. PCC7120) (UniProt P07120). As to the kind of experiment: IMAC copurification from cpcF mutant; SDS-PAGE, mass spectrometry.

Consider “apo-HTα (His-tagged C-phycocyanin α subunit without bilin) (from UniProt P07121 1-163)”, for which the binding result is given as “binds”.
